This note sets out measurements from publication PMC10183829, “Shuffled ATG8 interacting motifs form an ancestral bridge between UFMylation and autophagy” (The EMBO Journal, 2023).

The chains behind the UniProt entries cited, without tags or fusion partners. Residues count along the entry.
UniProt O95166, residues 3-116: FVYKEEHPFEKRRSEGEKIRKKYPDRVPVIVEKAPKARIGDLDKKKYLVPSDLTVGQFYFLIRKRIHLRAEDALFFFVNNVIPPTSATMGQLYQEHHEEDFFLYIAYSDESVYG

These are yes or no findings as the source states them, for the method shown. Some binding calls cover weakened binding; strength is not graded here.

In this assay the target is T1, mCh-HsC53 (human) (UniProt Q96JB5).
T1 sequence: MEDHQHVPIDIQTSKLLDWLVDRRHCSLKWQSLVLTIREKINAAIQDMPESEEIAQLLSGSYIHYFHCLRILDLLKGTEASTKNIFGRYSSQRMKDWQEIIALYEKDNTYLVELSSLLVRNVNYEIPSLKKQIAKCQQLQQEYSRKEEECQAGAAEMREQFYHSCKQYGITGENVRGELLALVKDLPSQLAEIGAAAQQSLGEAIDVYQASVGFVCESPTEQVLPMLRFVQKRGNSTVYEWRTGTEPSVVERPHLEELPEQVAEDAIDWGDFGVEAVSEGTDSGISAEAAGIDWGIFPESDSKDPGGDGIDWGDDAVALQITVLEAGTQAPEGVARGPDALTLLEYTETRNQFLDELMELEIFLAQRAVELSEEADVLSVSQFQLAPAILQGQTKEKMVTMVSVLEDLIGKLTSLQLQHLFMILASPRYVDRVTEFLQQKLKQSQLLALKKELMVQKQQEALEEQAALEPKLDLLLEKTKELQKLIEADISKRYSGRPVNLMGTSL
In words: microscopy-based on-bead protein-protein interaction assay; both purified.

Take “GABARAP (purified) (from UniProt O95166 3-116)”: the binding result is “binds”.
